Results: patent US20260193355A1
No constants are given. Whether binding was seen depends on the method and setting. Some entries that bind do so weakly or less than the wild type. Tags and fused reporters may be left off the sequences shown.

Experiments:
[1] = target: T1, His-tagged canine PD-L1 protein (6xHis tagged extracellular domain of cPD-L1) (canine) (UniProt E2RKZ5); assay: ELISA, bound Ab as OD450
T1 sequence: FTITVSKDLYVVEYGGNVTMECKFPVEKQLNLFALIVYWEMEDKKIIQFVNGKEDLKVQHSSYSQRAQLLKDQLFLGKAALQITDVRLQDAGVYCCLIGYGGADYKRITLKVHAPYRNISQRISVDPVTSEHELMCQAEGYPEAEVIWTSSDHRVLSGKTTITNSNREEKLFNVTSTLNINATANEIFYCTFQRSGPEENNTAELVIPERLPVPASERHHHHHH

[2] = target: T1, His-tagged canine PD-L1 protein (6xHis tagged extracellular domain of cPD-L1) (canine); assay: Octet biolayer interferometry, His-tagged cPD-L1 on NTA biosensor, antibody in solution

binding [1]: binds | binding [2]: binds
B1: cPD-L1 12C10E4 chimeric antibody (mouse variable domains, canine IgG2 heavy and canine kappa light constant domains) (antibody, V domains shown)
VH: QVQLKQSGPGLVQPSQSLSITCTISGFSLTSFGVHWVRQSPGKGLEWLGVIWSGGSTDYNAAFTSRLSINKDNSKSQVFFKMNSLQADDTAIYYCARGGGPDWYFDVWGTGTTVTVSS
VL: DIVLTQSPASLAVSLGQRATISCRASESVEYYGTSLMQWYQQKPGQPPKLLIFAASNVKSGVPARFSGSGSGTDFSLNIHPVEEDDIAMYFCQQSGKVPHTFGGGTKLEIKR
